Assay results reported in patent US7015190B1, “Method for enhancing long-term memory in a subject and uses thereof” (The Trustees of Columbia University in the City of New York, priority 1996, dated 2006).
Results are given in words; binding and its absence hold for the method and conditions named. Some entries that bind do so weakly or less than the wild type. For some of these results: Tags and fused reporters may be left off the sequences shown.

Amino acid sequences for entries named in this document (tags omitted). A change or cut given only in a name is not applied to a line headed by its entry. Chains listed by the source or under a name are the forms on record and can include a tag or linker.
rat CREB-1 (P15337, form named): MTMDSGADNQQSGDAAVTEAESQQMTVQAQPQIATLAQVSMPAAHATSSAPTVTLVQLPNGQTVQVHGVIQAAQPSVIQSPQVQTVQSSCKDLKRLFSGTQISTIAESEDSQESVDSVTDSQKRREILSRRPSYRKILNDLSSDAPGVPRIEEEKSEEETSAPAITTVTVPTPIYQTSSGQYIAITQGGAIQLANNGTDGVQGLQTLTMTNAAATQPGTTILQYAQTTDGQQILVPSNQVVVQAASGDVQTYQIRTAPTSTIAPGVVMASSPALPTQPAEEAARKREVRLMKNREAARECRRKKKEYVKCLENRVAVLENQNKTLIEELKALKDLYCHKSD

What was measured:
rat CREB-1 (rat) [1] = molecular target: rat CREB-1 (rat) (UniProt P15337); assay: in vitro heterodimer formation on a CRE
rat CREB-1 (rat) [2] = molecular target: rat CREB-1 (rat) (UniProt P15337); assay: in vitro heterodimer formation, method not detailed
rat CREB-1 (rat) [3] = molecular target: rat CREB-1 (rat) (UniProt P15337); assay: yeast two-hybrid

| Binder | binding (rat CREB-1 (rat) [1]) | binding (rat CREB-1 (rat) [2]) | binding (rat CREB-1 (rat) [3]) |
| --- | --- | --- | --- |
| ApCREB-2 (Aplysia californica bZIP transcription factor, full-length 378 amino acid protein) (protein) MELDLWSEDFQLAREWGLEMPVVQTDGQFGDLKSTSRHGGDESLSLQPQGATLKLEPFEEDVLGAEWMESSDLGSFLDALGDNHERLHPFESNLLEFTSLITPDDSTVSKDILSSTLQFPTQPVNIPLYASHGAEDFSAETEFENHLSPPDSPEQVAPVINLEPVELTASHMTVISPDGLLGGMELASESLTFTELDFVNFNDSAVGSIGGAEELLGSPLSVDDVESTISFSGPSSPETSQSSIIESSPELYKVISTSSIDASKRFSPYSRSSKSKQSVKTSDAKAPRKTRTPAQPVPEHVIMEHLDKKDRKKLQNKNAAIRYRMKKKGEAQGIKGEEQELEELNTKLKTKVDDLQREIKYMKNLMEDVCKAKGIQLKM | binds | binds |  |
| full-length ApCREB-2 as two-hybrid fusion (pGAD10 clone; pAS1 / pACT2 subclones) (protein, not shown: large carriers) MELDLWSEDFQLAREWGLEMPVVQTDGQFGDLKSTSRHGGDESLSLQPQGATLKLEPFEEDVLGAEWMESSDLGSFLDALGDNHERLHPFESNLLEFTSLITPDDSTVSKDILSSTLQFPTQPVNIPLYASHGAEDFSAETEFENHLSPPDSPEQVAPVINLEPVELTASHMTVISPDGLLGGMELASESLTFTELDFVNFNDSAVGSIGGAEELLGSPLSVDDVESTISFSGPSSPETSQSSIIESSPELYKVISTSSIDASKRFSPYSRSSKSKQSVKTSDAKAPRKTRTPAQPVPEHVIMEHLDKKDRKKLQNKNAAIRYRMKKKGEAQGIKGEEQELEELNTKLKTKVDDLQREIKYMKNLMEDVCKAKGIQLKM |  |  | binds |
| ApCREB-2 C-terminal 118 amino acid peptide (amino acids 260-378, bZIP motif) as two-hybrid fusion (protein, not shown: large carriers) IDASKRFSPYSRSSKSKQSVKTSDAKAPRKTRTPAQPVPEHVIMEHLDKKDRKKLQNKNAAIRYRMKKKGEAQGIKGEEQELEELNTKLKTKVDDLQREIKYMKNLMEDVCKAKGIQLK |  |  | binds |
